Source: patent US20150110793A1
These are yes or no findings as the source states them, for the method shown. Some binding calls cover weakened binding; strength is not graded here.

T1: cynomolgus EREG (Biacore analyte) (cynomolgus monkey)
T1 sequence: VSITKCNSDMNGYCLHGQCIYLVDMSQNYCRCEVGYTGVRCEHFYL

T2: Human EREG (Biacore analyte) (human) (UniProt O14944)
T2 sequence: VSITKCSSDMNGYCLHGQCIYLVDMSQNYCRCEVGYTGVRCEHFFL


Tests used:
[1] = molecular target: T1, cynomolgus EREG (Biacore analyte) (cynomolgus monkey); experiment: SPR (Biacore T100, single-cycle kinetics), antibody captured on Protein A, cynomolgus or human EREG as analyte; bar = KD for monkey Epiregulin / KD for human Epiregulin
[2] = molecular target: T2, Human EREG (Biacore analyte) (human); experiment: SPR (Biacore T100, single-cycle kinetics), antibody captured on Protein A, human EREG as analyte; bar = KD of the antibody / KD of chimeric EP27
[3] = molecular target: T1, cynomolgus EREG (Biacore analyte) (cynomolgus monkey); experiment: SPR (Biacore)
[4] = molecular target: T2, Human EREG (Biacore analyte) (human); experiment: SPR (Biacore)

binding [1]	binding [2]	binding [3]	binding [4]	Binder
binds	binds	binds	binds	H204-G1d/LB-k (antibody, human IgG1, kappa, V domains shown) VH: QDQLVQSGAEVKKPGASVKVSCKASGFNIKDTYIQWVRQAPGQGLEWMGRIDPLRRQTKYREKFEGRVTITADTSTNTAYMELSSLRAEDTAVYYCVRSGREFDFWGQGTLVTVSS VL: DIQMTQSPSSLSASVGDRVTITCKASQDIHKYIAWYQQKPGQAPRLLIQYTSTLQPGVPSRFSGSGSGTDYTFTISSLQPEDIATYYCLQYDNLRTFGGGTKVEIKR
–	–	binds	binds	H240-G1d/L53-k (antibody, human IgG1, kappa, V domains shown) VH: QDQLVQSGAEVKKPGASVKVSCKASGFNIKDTYIQWVRQAPGQGLEWMGRIDPLRKQTKYREKFEGRVTITADTSTNTAYMELSSLRSEDTAVYYCVRSGREFDYWGQGTLVTVSS VL: DIQMTQSPSSLSASVGDRVTITCRASQDIHKYIAWYQQKPGQAPRLLIQYTSTLQPGVPSRFSGSGSGTDYTFTISSLQPEDIATYYCLQYDNLRTFGGGTKVEIKR
–	–	binds	binds	H240-G1d/L73-k (antibody, human IgG1, kappa, V domains shown) VH: QDQLVQSGAEVKKPGASVKVSCKASGFNIKDTYIQWVRQAPGQGLEWMGRIDPLRKQTKYREKFEGRVTITADTSTNTAYMELSSLRSEDTAVYYCVRSGREFDYWGQGTLVTVSS VL: DIQMTQSPSSLSASVGDRVTITCRASQDIHKYIAWYQQKPGQAPRLLIQYTSTLQPGVPSRFSGSGSGTDYTFTISSLQPEDIATYYCLQYEQLRTFGGGTKVEIKR
binds	binds	binds	binds	H205-G1d/LB-k (antibody, human IgG1, kappa, V domains shown) VH: QDQLVQSGAEVKKPGASVKVSCKASGFNIKDTYIQWVRQAPGQGLEWMGRIDPLRRQTKYREKFEGRVTITADTSTNTAYMELSSLRSEDTAVYYCVRSGREFDYWGQGTLVTVSS VL: DIQMTQSPSSLSASVGDRVTITCKASQDIHKYIAWYQQKPGQAPRLLIQYTSTLQPGVPSRFSGSGSGTDYTFTISSLQPEDIATYYCLQYDNLRTFGGGTKVEIKR
–	–	binds	binds	H206-G1d/L53-k (antibody, human IgG1, kappa, V domains shown) VH: QDQLVQSGAEVKNPGASVKVSCKASGFNIKDTYIQWVRQAPGQGLEWMGRIDPLRRQTKYREKFEGRVTITADTSTNTAYMELSSLRSEDTAVYYCVRSGREFDFWGQGTLVTVSS VL: DIQMTQSPSSLSASVGDRVTITCRASQDIHKYIAWYQQKPGQAPRLLIQYTSTLQPGVPSRFSGSGSGTDYTFTISSLQPEDIATYYCLQYDNLRTFGGGTKVEIKR
binds	binds	binds	binds	H197-G1d/L48-k (antibody, human IgG1, kappa, V domains shown) VH: QDQLVQSGAEVKKPGASVKVSCKASGFNIKDTYIQWVRQAPGQGLEWMGRIDPLRRQTKYHEKFEGRVTITADTSTNTAYMELSSLRSEDTAVYYCVRSGRSFDFWGQGTLVTVSS VL: DIQMTQSPSSLSASVGDRVTITCKASQDIHKYIAWYQQKPGQAPRLLIQYTSTLQPGVPSRFSGSGSGTDYTFTISSLQPEDIATYYCLQYDNRRTFGGGTKVEIKR
binds	binds	binds	binds	H197-G1d/LB-k (antibody, human IgG1, kappa, V domains shown) VH: QDQLVQSGAEVKKPGASVKVSCKASGFNIKDTYIQWVRQAPGQGLEWMGRIDPLRRQTKYHEKFEGRVTITADTSTNTAYMELSSLRSEDTAVYYCVRSGRSFDFWGQGTLVTVSS VL: DIQMTQSPSSLSASVGDRVTITCKASQDIHKYIAWYQQKPGQAPRLLIQYTSTLQPGVPSRFSGSGSGTDYTFTISSLQPEDIATYYCLQYDNLRTFGGGTKVEIKR
–	–	binds	binds	H206-G1d/L73-k (antibody, human IgG1, kappa, V domains shown) VH: QDQLVQSGAEVKNPGASVKVSCKASGFNIKDTYIQWVRQAPGQGLEWMGRIDPLRRQTKYREKFEGRVTITADTSTNTAYMELSSLRSEDTAVYYCVRSGREFDFWGQGTLVTVSS VL: DIQMTQSPSSLSASVGDRVTITCRASQDIHKYIAWYQQKPGQAPRLLIQYTSTLQPGVPSRFSGSGSGTDYTFTISSLQPEDIATYYCLQYEQLRTFGGGTKVEIKR
–	–	–	binds	H213-G1d/L53-k (antibody, human IgG1, kappa, V domains shown) VH: QDQLVQSGAEVKKPGASVKVSCKASGFNIKDTYIQWVRQAPGQGLEWMGRIDPLRHQTKYREKFEGRVTITADTSTNTAYMELSSLRSEDTAVYYCVRSGREFDFWGQGTLVTVSS VL: DIQMTQSPSSLSASVGDRVTITCRASQDIHKYIAWYQQKPGQAPRLLIQYTSTLQPGVPSRFSGSGSGTDYTFTISSLQPEDIATYYCLQYDNLRTFGGGTKVEIKR

Second part, the binder before the results:

Binder	binding [1]	binding [2]	binding [3]	binding [4]
H150-G1d/L21-k (antibody, human IgG1, kappa, V domains shown) VH: QDQLVQSGAEVKKPGASVKVSCKASGFNIKDTYIQWVRQAPGQGLEWMGRIDPLRRNTKYREKFEGRVTITADTSTNTAYMELSSLRSEDTAVYYCVRSGRSFDFWGQGTLVTVSS VL: DIQMTQSPSSLSASVGDRVTITCQASQDIHKYIAWYQQKPGQAPRLLIQYTSTLQPGVPSRFSGSGSGTDYTFTISSLQPEDIATYYCLQYDNLRTFGGGTKVEIER	binds	binds	binds	binds
H154-G1d/L48-k (antibody, human IgG1, kappa, V domains shown) VH: QDQLVQSGAEVKKPGASVKVSCKASGFNIKDTYIQWVRQAPGQGLEWMGRIDPLRRNTKYREKFEGRVTITADTSTNTAYMELSSLRSEDTAVYYCVRSGREFDFWGQGTLVTVSS VL: DIQMTQSPSSLSASVGDRVTITCKASQDIHKYIAWYQQKPGQAPRLLIQYTSTLQPGVPSRFSGSGSGTDYTFTISSLQPEDIATYYCLQYDNRRTFGGGTKVEIKR	binds	binds	binds	binds
H183-G1d/L48-k (antibody, human IgG1, kappa, V domains shown) VH: QDQLVQSGAEVKKPGASVKVSCKASGFNIKDTYIQWVRQAPGQGLEWMGRIDPLRRQTKYREKFEGRVTITADTSTNTAYMELSSLRSEDTAVYYCVRSGREFDFWGQGTLVTVSS VL: DIQMTQSPSSLSASVGDRVTITCKASQDIHKYIAWYQQKPGQAPRLLIQYTSTLQPGVPSRFSGSGSGTDYTFTISSLQPEDIATYYCLQYDNRRTFGGGTKVEIKR	binds	binds	binds	binds
H166-G1d/LB-k (antibody, human IgG1, kappa, V domains shown) VH: QDQLVQSGAEVKKPGASVKVSCKASGFNIKDTYIQWVRQAPGQGLEWMGRIDPLRRQTKYREKFEGRVTITADTSTNTAYMELSSLRSEDTAVYYCVRSGTSFDFWGQGTLVTVSS VL: DIQMTQSPSSLSASVGDRVTITCKASQDIHKYIAWYQQKPGQAPRLLIQYTSTLQPGVPSRFSGSGSGTDYTFTISSLQPEDIATYYCLQYDNLRTFGGGTKVEIKR	binds	binds	binds	binds
H154-G1d/LB-k (antibody, human IgG1, kappa, V domains shown) VH: QDQLVQSGAEVKKPGASVKVSCKASGFNIKDTYIQWVRQAPGQGLEWMGRIDPLRRNTKYREKFEGRVTITADTSTNTAYMELSSLRSEDTAVYYCVRSGREFDFWGQGTLVTVSS VL: DIQMTQSPSSLSASVGDRVTITCKASQDIHKYIAWYQQKPGQAPRLLIQYTSTLQPGVPSRFSGSGSGTDYTFTISSLQPEDIATYYCLQYDNLRTFGGGTKVEIKR	binds	binds	binds	binds
H193-G1d/LB-k (antibody, human IgG1, kappa, V domains shown) VH: QDQLVQSGAEVKKPGASVKVSCKASGFNIKDTYIQWVRQAPGQGLEWMGRIDPLREQTKYREKFEGRVTITADTSTNTAYMELSSLRSEDTAVYYCVRSGRSFDFWGQGTLVTVSS VL: DIQMTQSPSSLSASVGDRVTITCKASQDIHKYIAWYQQKPGQAPRLLIQYTSTLQPGVPSRFSGSGSGTDYTFTISSLQPEDIATYYCLQYDNLRTFGGGTKVEIKR	binds	binds	binds	binds
H168-G1d/LB-k (antibody, human IgG1, kappa, V domains shown) VH: QDQLVQSGAEVKKPGASVKVSCKASGFNIKDTYIQWVRQAPGQGLEWMGRIDPLRRSTKYREKFEGRVTITADTSTNTAYMELSSLRSEDTAVYYCVRSGTSFDFWGQGTLVTVSS VL: DIQMTQSPSSLSASVGDRVTITCKASQDIHKYIAWYQQKPGQAPRLLIQYTSTLQPGVPSRFSGSGSGTDYTFTISSLQPEDIATYYCLQYDNLRTFGGGTKVEIKR	binds	binds	binds	binds
H183-G1d/LB-k (antibody, human IgG1, kappa, V domains shown) VH: QDQLVQSGAEVKKPGASVKVSCKASGFNIKDTYIQWVRQAPGQGLEWMGRIDPLRRQTKYREKFEGRVTITADTSTNTAYMELSSLRSEDTAVYYCVRSGREFDFWGQGTLVTVSS VL: DIQMTQSPSSLSASVGDRVTITCKASQDIHKYIAWYQQKPGQAPRLLIQYTSTLQPGVPSRFSGSGSGTDYTFTISSLQPEDIATYYCLQYDNLRTFGGGTKVEIKR	binds	binds	binds	binds
H183-G1d/L21-k (antibody, human IgG1, kappa, V domains shown) VH: QDQLVQSGAEVKKPGASVKVSCKASGFNIKDTYIQWVRQAPGQGLEWMGRIDPLRRQTKYREKFEGRVTITADTSTNTAYMELSSLRSEDTAVYYCVRSGREFDFWGQGTLVTVSS VL: DIQMTQSPSSLSASVGDRVTITCQASQDIHKYIAWYQQKPGQAPRLLIQYTSTLQPGVPSRFSGSGSGTDYTFTISSLQPEDIATYYCLQYDNLRTFGGGTKVEIER	binds	binds	binds	binds
